This experiment deals with GPRC5D (G protein-coupled receptor family C group 5 member D) (UniProt Q9NZD1). Briefly: hybridoma cell screening; method of the binding test not described.

Amino acid sequences for entries named in this document (tags omitted).
UniProt Q9NZD1: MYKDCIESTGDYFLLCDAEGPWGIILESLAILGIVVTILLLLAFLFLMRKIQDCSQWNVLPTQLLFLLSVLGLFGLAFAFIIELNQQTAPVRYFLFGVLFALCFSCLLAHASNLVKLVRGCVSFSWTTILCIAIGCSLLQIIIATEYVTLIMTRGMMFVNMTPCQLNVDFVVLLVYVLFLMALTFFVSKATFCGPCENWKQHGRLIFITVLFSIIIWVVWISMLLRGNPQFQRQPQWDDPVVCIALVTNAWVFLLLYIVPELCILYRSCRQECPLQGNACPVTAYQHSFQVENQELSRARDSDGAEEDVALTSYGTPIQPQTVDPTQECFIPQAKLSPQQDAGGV

No constants are given. Whether binding was seen depends on the method and setting. Some entries that bind do so weakly or less than the wild type.

Results on one molecule are retold here after EP4755921A1.

B1: anti-GPRC5D antibody (obtained through hybridoma cell screening) (antibody, V domains shown)
VH: QVQLQESGPGLVKPSETLSLTCTVSGYSITSDYAWNWIRQPPGKGLEWMGYISYSGSATYSPSLKSRITISRDTSKNQFSLKLSSVTAADTAVYYCARGGIAGRGRWGAMDYWGQGTTVTVSS
VL: DIQMTQSPSSLSASVGDRVTITCKASQNVGTNVAWYQQKPGQSPKALIYSASYRDSGVPDRFSGSGSGTDFTLTISSLQPEDFATYYCQQYKSYPLTFGQGTRLEIK
For the molecule B1, the binding result was “binds”.
